Binding data for two molecules are collected here from PMC3689661, “Plant Kinesin-Like Calmodulin Binding Protein Employs Its Regulatory Domain for Dimerization” (PLoS ONE, 2013).

These are yes or no findings as the source states them, for the method shown. For part of these data: Where a sequence is shown, tags or fusion partners need not be part of it.

The target in test [1] is 6-His-KCBP (884–1225) (Arabidopsis) (UniProt Q9FHN8). The experiment in a line: SEC; Superdex 200 16/60; 50 mM Tris pH 7.5, 150 mM NaCl, 2 mM MgCl2, 0.1 mM ATP, 1 mM TCEP, and either 1 mM EGTA or 2 mM CaCl2; isolated proteins; both purified. Background: In gel filtration, larger molecules generally elute earlier.
For test [2], the target named is Arabidopsis KCBP (884–1244) (Arabidopsis) (UniProt Q9FHN8). Briefly: AUC; sedimentation equilibrium, Beckman Optima XL-A; three concentrations (OD280 ~0.25, ~0.4, ~0.5), 5 speeds between 3,000 and 16,000 rpm, 281 nm, 5.8°C (legend of Figure S1: 20°C); 1-component model; both purified.
Test [3] shares this target. The experiment in a line: SEC; Superdex 200 16/60; 50 mM Tris pH 7.5, 150 mM NaCl, 2 mM MgCl2, 0.1 mM ATP, 1 mM TCEP, and either 1 mM EGTA or 2 mM CaCl2; isolated proteins; both purified.

B1: 6-His-KCBP (884–1225) (domain or fragment, UniProt Q9FHN8 884-1225)
chain: DMKGKIRVYCRIRPLNEKESSEREKQMLTTVDEFTVEHPWKDDKRKQHIYDRVFDMRASQDDIFEDTKYLVQSAVDGYNVCIFAYGQTGSGKTFTIYGHESNPGLTPRATKELFNILKRDSKRFSFSLKAYMVELYQDTLVDLLLPKSARRLKLEIKKDSKGMVFVENVTTIPISTLEELRMILERGSERRHVSGTNMNEESSRSHLILSVVIESIDLQTQSAARGKLSFVDLAGSERVKKSGSAGCQLKEAQSINKSLSALGDVIGALSSGNQHIPYRNHKLTMLMSDSLGGNAKTLMFVNVSPAESNLDETYNSLLYASRVRTIVNDPSKHISSKEMVRL
On to B1, for which, in test [1], the binding entry is recorded as “no binding”.

B2: Arabidopsis KCBP (884–1244) (domain or fragment, UniProt Q9FHN8 884-1244)
chain: DMKGKIRVYCRIRPLNEKESSEREKQMLTTVDEFTVEHPWKDDKRKQHIYDRVFDMRASQDDIFEDTKYLVQSAVDGYNVCIFAYGQTGSGKTFTIYGHESNPGLTPRATKELFNILKRDSKRFSFSLKAYMVELYQDTLVDLLLPKSARRLKLEIKKDSKGMVFVENVTTIPISTLEELRMILERGSERRHVSGTNMNEESSRSHLILSVVIESIDLQTQSAARGKLSFVDLAGSERVKKSGSAGCQLKEAQSINKSLSALGDVIGALSSGNQHIPYRNHKLTMLMSDSLGGNAKTLMFVNVSPAESNLDETYNSLLYASRVRTIVNDPSKHISSKEMVRLKKLVAYWKEQAGKKGEEED
For B2, the binding entry in test [2] and in test [3] was “no binding” in each case.
